No constants are given. Whether binding was seen depends on the method and setting. Some results given as binding are weak or reduced against the parent protein; the word gives no strength. Where a sequence is shown, tags or fusion partners need not be part of it.
What was measured:
[1] = target: T1, Bacillus cereus VD045 GajA (Gabija protein A), co-expressed with GajB, tag removed (Bacillus cereus VD045) (UniProt J8H9C1); test: SEC
T1 sequence: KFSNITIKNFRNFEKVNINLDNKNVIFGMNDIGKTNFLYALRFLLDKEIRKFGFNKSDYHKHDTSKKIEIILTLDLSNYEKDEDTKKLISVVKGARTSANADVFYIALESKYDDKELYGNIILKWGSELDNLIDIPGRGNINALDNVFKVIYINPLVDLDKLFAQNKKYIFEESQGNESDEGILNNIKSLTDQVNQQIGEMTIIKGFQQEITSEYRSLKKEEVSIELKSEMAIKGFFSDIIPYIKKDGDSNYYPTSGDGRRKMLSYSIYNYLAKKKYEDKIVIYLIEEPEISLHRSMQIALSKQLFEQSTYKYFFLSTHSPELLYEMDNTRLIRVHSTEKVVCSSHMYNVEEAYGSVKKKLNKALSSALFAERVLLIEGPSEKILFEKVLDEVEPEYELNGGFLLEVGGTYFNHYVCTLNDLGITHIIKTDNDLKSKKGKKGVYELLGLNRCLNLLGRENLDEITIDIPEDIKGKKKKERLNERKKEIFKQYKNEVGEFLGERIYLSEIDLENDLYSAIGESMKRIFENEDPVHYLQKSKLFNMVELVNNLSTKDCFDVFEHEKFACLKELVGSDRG

[2] = target: T2, SUMO2-tagged Bacillus cereus VD045 GajA (chain of the SUMO2-GajAB complex) (Bacillus cereus VD045) (UniProt J8H9C1); test: cryo-EM structure
T2 sequence: T1 sequence

binding [1]: binds
binding [2]: binds
B1: Bacillus cereus VD045 GajB (Gabija protein B), untagged, co-expressed with GajA (enzyme, UniProt J8HQ06 2-494)
chain: SREQIIKDGGNILVTAGAGSGKTTILVSKIEADLKENKTHYSIAAVTFTNKAAKEIEGRLGYSSRGNFIGTNDGFVESEIIRPFIKDAFGNDYPDNFTAEYFDNQFASYDKGLQVLKYQNILGTYSNPKKNFKFQLALDILKKSLVARQYIFSKYFKIFIDEYQDSDKDMHNLFMYLKDQLKIKLFIVGDPKQSIYIWRGAEPENFNGLIENSTDFNKYHLTSNFRCCQDIQNYSNLFNEETRSLIKEKNEVQNVISIADDMPISDILLKLTEEKQVLNIEAELVILVRRRNQAIEIMKELNEEGFNFIFIPQTPLDRATPNATLLKEVIKYVKNDRYSIYDLAAEIVGNLSSREIKEIQKIINELLVPNINQVLINQVLINLFAKLEITLDTREITAFTEVMMTNEFDIAFDTNEYLHKIFTVHSAKGLEFNQVIITASDYNVHYNRDTNEHYVATTRAKDKLIVIMDNKKYSDYIETLMKELKIKNIIKSI

From publication doi:10.1101/2023.05.01.538945
